According to patent US10975142B2, “Endotrophin neutralization and use thereof” (THE BOARD OF REGENTS OF THE UNIVERSITY OF TEXAS SYSTEM, priority 2013, dated 2021):
At least one structure is not confirmed: it was looked up by name or label, or the drawing left a doubt.

Experiments:
PyMT mice = test: TZD and cisplatin treatment of FP635/PyMT (PyMT) mice; assay type: in vivo, mouse; settings: TZD monotherapy
Procedure: FIGS. 19A-19F. TZD augments cisplatin sensitivity and correlates with the COL6A3 levels. FIG. 19A. FP635/PyMT mice were given TZD containing chow (supply approx. 20 mg/kg/day, rosiglitazone) or normal-diet (ND) starting at 8-weeks of age, and cisplatin (1 mg/kg) or PBS treatment was initiated at 10 weeks of age (ip., 3 times/week) over the course of tumor progression. Tumor burden was monitored with a fluorescence scanner (IVIS, Caliper life science). Quantified results are represented as mean±SD (n=8-9/group). *p=0.04, ND/CIS vs. TZD/CIS by unpaired student t-test. Metastatic burden was determined by fluorescence signals in lung tissues. FIG. 19B. […] Tumor volumes were determined by caliper measurement and represented as mean±SD (n=5-6/group). *p<0.05 and **p<0.001, ND/CIS vs. TZD/CIS by 2-way ANOVA. […] Total RNA was extracted from tumor tissues in each group. mRNA levels for collagens such as COL1A1, COL6A1, -A2, and -A3 (FIG. 19C), and EMT genes such as E-cadherin, N-cadherin, Vimentin, Snail, Slug, Twist1 and Twist2 (FIG. 19D) were determined by qRT-PCR and normalized with 36B4. Quantitative results represent mean±SD (n=7/group). *p<0.05, **p<0.01, ***p<0.001 ND/PBS vs. ND/CIS; ^###p<0.001 ND/CIS vs. TZD/CIS by 2-way ANOVA. […] EMT indices were determined by immunostaining with E-Cadherin (FIG. 19E) and Vimentin (FIG. 19F). […]

tumors from PyMT mice = test: allografts of PyMT tumor pieces, cisplatin with TZD or 10B6; assay type: in vivo; settings: cisplatin 1 mg/kg every 5 days combined with TZD 20 mg/kg or 10B6 100 μg/mouse once a week; 2-months post implantation
Procedure: FIGS. 22A-22E. Neutralizing endotrophin activities with monoclonal antibodies sensitizes tumors to cisplatin treatment. FIG. 22A. Pieces of tumors from PyMT mice were implanted into wild-type hosts. Tumor-bearing mice were given cisplatin (1 mg/kg, ip., every 5 days) or PBS, combined with either TZD (20 mg/kg) or anti-endotrophin monoclonal antibodies (100 μg/mouse, once a week) for tumor progression. Tumor volumes were determined by caliper measurements. Data represent mean±SD (n=5/group). *p<0.05, **p<0.01, ***p<0.001 vs. Cisplatin by 2-way ANOVA. FIGS. 22B-22D. 4T1 (0.5×10^6/mouse) cells were xenografted in nude mice and monitored tumor growth (FIG. 22B) and metastasis (FIG. 22C). […] Tumor volumes were determined by caliper measurements. […] Metastatic burden was determined by measuring metastatic lesion area in lung tissues with H&E stains. Quantified data represent mean±SD (n=5/group). **p=0.0007 and *p=0.0209 vs. CIS/10B6 by unpaired student t-test. mRNA levels for EMT markers such as vimentin, snail, slug, twist1, twist2 and S100S4 were determined by RT-qPCR (FIG. 22D). […]
As a last step, therapeutic potential of a previously described endotrophin neutralizing antibody (clone 10B6) on cisplatin sensitivity was determined. […] Tumor regression was monitored for 2-months post implantation. […]

CN(CCOc1ccc(CC2SC(=O)NC2=O)cc1)c1ccccn1 (centres unmarked) [TZD, rosiglitazone, reference compound]
tumor progression in PyMT mice (PyMT mice): fails to have an impact
tumor growth / sensitization of the tumors to cisplatin treatment (tumors from PyMT mice): efficiently sensitize
